Laboratory results as given in publication doi:10.1101/2022.02.03.478926.
Results are given in words; binding and its absence hold for the method and conditions named. Binding seen in cells or lysates may run through a third protein. Some results given as binding are weak or reduced against the parent protein; the word gives no strength.

By UniProt entry, the sequences of proteins in these tests, tags left out. Residues count along the entry.
UniProt P12023, residues 18-770: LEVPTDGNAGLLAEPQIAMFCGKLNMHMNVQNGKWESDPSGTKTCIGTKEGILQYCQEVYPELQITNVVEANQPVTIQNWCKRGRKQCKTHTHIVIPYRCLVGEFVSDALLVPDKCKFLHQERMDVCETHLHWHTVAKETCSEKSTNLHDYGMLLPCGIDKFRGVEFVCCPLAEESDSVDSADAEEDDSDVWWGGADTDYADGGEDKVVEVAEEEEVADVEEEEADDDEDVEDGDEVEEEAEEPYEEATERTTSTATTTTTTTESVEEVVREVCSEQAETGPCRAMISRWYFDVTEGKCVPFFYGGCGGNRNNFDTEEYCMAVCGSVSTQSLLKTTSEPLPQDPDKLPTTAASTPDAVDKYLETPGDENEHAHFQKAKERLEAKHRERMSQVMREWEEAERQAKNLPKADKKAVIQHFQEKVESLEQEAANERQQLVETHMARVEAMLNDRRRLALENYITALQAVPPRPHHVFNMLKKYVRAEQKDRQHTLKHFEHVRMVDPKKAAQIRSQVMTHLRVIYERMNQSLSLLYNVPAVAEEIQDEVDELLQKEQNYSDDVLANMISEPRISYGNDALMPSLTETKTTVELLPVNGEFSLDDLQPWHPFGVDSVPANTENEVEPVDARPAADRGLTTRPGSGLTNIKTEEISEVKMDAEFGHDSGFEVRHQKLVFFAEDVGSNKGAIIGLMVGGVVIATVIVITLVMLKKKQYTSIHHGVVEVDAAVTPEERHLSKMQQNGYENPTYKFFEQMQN
UniProt P39087, residues 32-908: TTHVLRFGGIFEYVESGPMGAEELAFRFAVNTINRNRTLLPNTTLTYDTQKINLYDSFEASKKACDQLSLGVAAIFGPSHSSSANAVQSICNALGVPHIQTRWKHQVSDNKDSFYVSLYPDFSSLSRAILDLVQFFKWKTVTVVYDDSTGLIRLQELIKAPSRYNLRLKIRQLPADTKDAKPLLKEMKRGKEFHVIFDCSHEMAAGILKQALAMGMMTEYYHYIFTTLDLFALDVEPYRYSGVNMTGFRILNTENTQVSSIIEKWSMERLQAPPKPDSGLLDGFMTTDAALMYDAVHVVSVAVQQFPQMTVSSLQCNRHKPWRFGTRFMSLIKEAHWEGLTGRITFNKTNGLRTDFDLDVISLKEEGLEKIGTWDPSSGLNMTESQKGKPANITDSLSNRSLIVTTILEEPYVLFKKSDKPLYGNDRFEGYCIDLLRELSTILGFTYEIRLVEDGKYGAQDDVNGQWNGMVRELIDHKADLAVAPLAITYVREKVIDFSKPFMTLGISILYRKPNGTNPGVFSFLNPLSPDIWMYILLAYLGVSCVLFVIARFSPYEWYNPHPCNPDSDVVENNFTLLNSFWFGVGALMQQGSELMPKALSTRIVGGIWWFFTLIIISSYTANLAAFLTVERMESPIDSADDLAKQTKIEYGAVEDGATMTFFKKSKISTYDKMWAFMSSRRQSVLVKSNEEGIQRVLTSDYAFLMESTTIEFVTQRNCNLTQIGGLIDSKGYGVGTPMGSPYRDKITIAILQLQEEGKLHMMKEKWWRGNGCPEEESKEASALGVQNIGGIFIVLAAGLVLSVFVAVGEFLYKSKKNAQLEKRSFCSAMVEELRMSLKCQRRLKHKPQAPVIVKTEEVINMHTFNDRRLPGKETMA

Columns and labels:
Assay in all cases: co-IP
[1] = biological target: full-length amyloid precursor protein (APP) (UniProt P12023)
[2] = biological target: T1, GluK5 kainate receptor subunit (UniProt Q61626)
T1 sequence: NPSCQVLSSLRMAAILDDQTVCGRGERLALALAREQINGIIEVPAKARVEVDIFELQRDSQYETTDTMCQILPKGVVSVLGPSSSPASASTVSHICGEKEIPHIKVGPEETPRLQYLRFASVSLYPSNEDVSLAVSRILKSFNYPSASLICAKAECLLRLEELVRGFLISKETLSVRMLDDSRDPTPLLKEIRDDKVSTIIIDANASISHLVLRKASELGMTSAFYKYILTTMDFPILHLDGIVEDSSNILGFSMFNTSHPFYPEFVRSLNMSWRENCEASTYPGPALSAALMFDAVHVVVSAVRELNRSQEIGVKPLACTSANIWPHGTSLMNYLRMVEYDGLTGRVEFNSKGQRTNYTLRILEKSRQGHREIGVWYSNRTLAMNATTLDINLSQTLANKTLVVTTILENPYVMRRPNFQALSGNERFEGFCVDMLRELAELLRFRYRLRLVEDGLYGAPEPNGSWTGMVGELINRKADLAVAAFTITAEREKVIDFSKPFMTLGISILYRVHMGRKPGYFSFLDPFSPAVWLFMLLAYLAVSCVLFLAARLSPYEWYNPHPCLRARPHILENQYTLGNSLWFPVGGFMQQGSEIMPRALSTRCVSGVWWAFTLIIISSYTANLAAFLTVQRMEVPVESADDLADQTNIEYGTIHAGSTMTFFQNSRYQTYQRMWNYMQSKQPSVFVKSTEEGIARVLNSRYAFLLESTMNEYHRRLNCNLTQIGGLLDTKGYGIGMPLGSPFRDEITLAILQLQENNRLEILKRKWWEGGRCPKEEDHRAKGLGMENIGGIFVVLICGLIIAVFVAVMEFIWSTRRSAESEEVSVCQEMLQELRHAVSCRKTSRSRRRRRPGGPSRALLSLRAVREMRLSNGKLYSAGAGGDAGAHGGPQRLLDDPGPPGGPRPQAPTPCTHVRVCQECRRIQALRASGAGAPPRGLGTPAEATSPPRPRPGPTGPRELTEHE

[3] = biological target: GluK2 kainate receptor subunit (UniProt P39087)

| binding [1] | binding [2] | binding [3] | Substance |
| --- | --- | --- | --- |
| binds | binds | – | GluK2 kainate receptor subunit (from UniProt P39087 32-908) |
| – | binds | binds | full-length amyloid precursor protein (APP) (from UniProt P12023 18-770) |
